Data from PubChem BioAssay AID493014 (National Center for Advancing Translational Sciences (NCATS), 2011).
Some of the results follow. Shown are side measurements of this screen, not its main read-out; they come without a call. Most of these compounds were active or inconclusive in the main read-out, so they are no random draw. The note in brackets gives the kind of curve behind each potency; many fits are weak.

Experiment: qHTS Assay to Find Inhibitors of Chronic Active B-Cell Receptor Signaling
Conditions: ABC-DLBCL IkBa-CBG/CBR reporter, luminescence ratio (green luciferase fused to IkBa over red control in TMD8 lymphoma cells), 4 h
Method in brief: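 TMD8 ABC-DLBCL cells carrying doxycycline-inducible green luciferase fused to IkappaBalpha plus unfused red luciferase were exposed to compounds (up to 46 uM) for 4 hrs at 37C. Activity came from the overlap-corrected green/red luminescence ratio.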

[1] = measured here: CBR red luminescence, cell number
[2] = measured here: IkBa-CBG green luminescence

SMILES	AC50 [1]	AC50 [2]
O=C(OC1CCCCC1=O)c1cccc(S(=O)(=O)NCc2ccccc2)c1 (centres undefined)	17.8 µM [falling, partial curve, poor fit]	
CCN1CCN(Cc2ccc(NC(=O)c3ccc(C)c(NC(=O)c4cccc5[nH]ccc45)c3)cc2C(F)(F)F)CC1	0.355 µM [falling, full curve, poor fit]	
O=c1c(Br)c(Br)cnn1-c1ccccc1	5.01 µM [falling, full curve]	3.55 µM [rising, full curve, poor fit]
Cn1cnc([N+](=O)[O-])c1Oc1cccc(O)c1	16.4 µM [falling, single point]	
COc1ccc(NC(=O)c2ccc(-c3ccc(-c4noc(C)n4)cc3C)cc2)cc1N1CCN(C)CC1		25.9 µM [falling, partial curve, poor fit]
CCOC(=O)Cc1csc(NC(=O)C2C3C=CC(C3)C2C(=O)O)n1 (centres undefined)	16.4 µM [rising, single point]	
Cc1[nH]c(=S)c(C#N)c(C)c1Cc1ccccc1	31.6 µM [rising, single point]	
Cn1c(SCC(=O)Nc2nccs2)nnc1C1CC1	6.31 µM [falling, full curve]	
COc1cccc(C(=O)Nc2cc(S(=O)(=O)N3CCCCC3)ccc2OC)c1	10 µM [falling, partial curve, poor fit]	
Cc1cccc(C)c1NC(=O)c1cnn(-c2ccccc2)c1C	7.08 µM [falling, partial curve]	
Oc1ccc(/C=N/Nc2ccc3ccccc3c2)c(O)c1	4.47 µM [falling, full curve, poor fit]	
CCCc1[nH]c2ccc(C#N)cc2c1CCC	35.5 µM [falling, single point]	
CN(C)c1ccc(/C=N/NC(=O)c2ccco2)cc1	0.92 µM [falling, full curve]	
COc1cccc(/C=N/NC(=O)c2nnn(-c3nonc3N)c2CN(C)c2ccccc2)c1	11.2 µM [falling, single point]	
COc1ccc(CS(=O)(=O)CC(C)(O)c2ccc(Cl)cc2)cc1 (centres undefined)	12.6 µM [rising, single point]	
O=C(c1cc2ncc(CCCl)cn2n1)N1CCCCCC1	6.51 µM [rising, partial curve, poor fit]	
COc1ccc(OC)c(NC(=O)CSc2nnc(NC(=O)c3ccco3)s2)c1	1.12 µM [falling, partial curve]	
CCOc1cccc2sc(Cl)nc12	0.355 µM [rising, full curve, poor fit]	
COc1ccc(S(=O)(=O)N2CCN(C(=O)c3ccc4ccccc4n3)CC2)cc1	2.59 µM [rising, partial curve, poor fit]	
C/C(Cl)=C/CSc1nn2c(=O)c3ccccc3nc2s1	16.4 µM [falling, single point]	
C=CCN1C(=O)C(CC(=O)O)S/C1=N/N=C/c1ccc(N(CC)CC)cc1 (centres undefined)		16.4 µM [falling, partial curve, poor fit]
O=[N+]([O-])c1ccc2nc(-c3ccncc3)[nH]c2c1	15.8 µM [falling, single point]	

Single entries from the list:
For AC50 [1], `CCCc1[nH]c2ccc(C#N)cc2c1CCC` shows 35.5 µM [falling, single point]
For AC50 [1], `Cn1c(SCC(=O)Nc2nccs2)nnc1C1CC1` shows 6.31 µM [falling, full curve]
For AC50 [1], `COc1ccc(CS(=O)(=O)CC(C)(O)c2ccc(Cl)cc2)cc1` (centres undefined) shows 12.6 µM [rising, single point]

More entries:

SMILES	AC50 [1]	AC50 [2]
COc1ccc(-c2cc(C(=O)Nc3c(F)cc(F)cc3Br)no2)cc1	31.6 µM [falling, single point]	
O=C(CN1C(=O)NC2(CCCc3ccccc32)C1=O)NCc1cccs1 (centres undefined)	10.3 µM [rising, partial curve]	
CCCNC(=S)N1CCC(C(=O)c2ccc(F)cc2)CC1	14.1 µM [rising, partial curve, poor fit]	
Cc1sc2nc(C3CC3)nc(SCC(=O)NCc3ccco3)c2c1C	6.31 µM [rising, partial curve, poor fit]	
CCCN(CCC)C(=O)c1cc(-c2ccc3c(c2)OCO3)nc2ccccc12	1.84 µM [falling, full curve]	20.6 µM [rising, partial curve, poor fit]
CC(=O)N1CCN(c2ccccc2NC(=O)c2cc(Br)ccc2Cl)CC1	0.461 µM [rising, full curve, poor fit]	
Cc1cc(C)nc(/N=C(\N)N2CCCCC2)n1	22.4 µM [falling, single point]	
CSCSC1=C(C#N)C(c2ccccc2Cl)C(C(C)=O)=C(C)N1 (centres undefined)	7.94 µM [falling, partial curve, poor fit]	
CCCOc1ccc(-c2cn3ccccc3n2)cc1	8.91 µM [falling, partial curve, poor fit]	
CC1(C)CC(=O)C(C=NCCN2CCN(C(=O)NC34CC5CC(CC(C5)C3)C4)CC2)=C(O)C1	6.31 µM [rising, partial curve, poor fit]	
C[C@H]1CCC(=O)N([C@H](CSc2ccc(Br)cc2)Cc2ccccc2)CC1	4.61 µM [rising, single point]	
COC(=O)c1ccc(COc2cccc3c2CCN(Cc2cccc(C)c2)C3=O)o1	20.6 µM [falling, partial curve]	
O=C(Nc1nnc(-c2ccccc2)s1)c1ccc(F)cc1	0.398 µM [falling, full curve, poor fit]	
Cc1cc(C)cc(OCC(=O)Nc2ccc3c(c2)OCO3)c1	0.355 µM [rising, full curve]	
COc1ccc(Cl)cc1NC(=S)NC1CCCC1	3.98 µM [falling, full curve, poor fit]	
Cc1ccc2cc(CCNC(=O)c3ccc(Br)o3)c(=O)[nH]c2c1	11.2 µM [falling, partial curve, poor fit]	
COc1ccc(OC)c(-c2csc(-c3cccs3)n2)c1	11.2 µM [rising, partial curve]	
CCc1c(C)[nH]c(=S)c(C#N)c1C	35.5 µM [rising, single point]	
FCCCOc1ccc(-c2ccnc3ncnn23)cc1	35.5 µM [rising, partial curve, poor fit]	
Cc1nc(-c2ccccc2)sc1C(=O)/C=C/N(C)C	28.2 µM [falling, single point]	
O=C(Cc1ccc(Cl)cc1)Nc1ccccc1N1CCN(C(=O)c2ccccc2)CC1	35.5 µM [falling, single point]	
CC1C(c2ccccc2)N(C)C(c2ccccc2)C(C)C1(O)C#Cc1ccccc1 (centres undefined)	11.6 µM [rising, partial curve]	

SMILES	AC50 [1]	AC50 [2]
CC(Cc1cccs1)NC(=S)Nc1ccc(Cl)c(Cl)c1 (centres undefined)	29.1 µM [falling, single point]	
CCCOC(=O)C(C)n1c(-c2ccccc2)nc2ccccc2c1=O (centres undefined)	22.4 µM [rising, single point]	
NC(=O)COC(=O)c1cccc(S(=O)(=O)N2CCN(c3ccc(F)cc3)CC2)c1	1.12 µM [falling, partial curve, poor fit]	
COCCNC(=S)N(CCc1c(C)[nH]c2ccc(F)cc12)Cc1cccs1	35.5 µM [falling, single point]	35.5 µM [rising, partial curve, poor fit]
Cc1ccc(NC(=O)c2cnc(SCC(=O)N3CCCc4ccccc43)n(C)c2=O)cc1	0.562 µM [falling, full curve]	
COC(=O)C1Cc2ccccc2CN1C(=O)CCl (centres undefined)	17.8 µM [falling, single point]	
CCOC(=O)c1ccc(NC(=S)N2CCCC2c2ccc(OC)c(OC)c2)cc1 (centres undefined)	1.58 µM [rising, partial curve]	
COCCNC(=O)c1ccc2c(c1)ncn2-c1ccc(C)c(Cl)c1	3.98 µM [rising, partial curve, poor fit]	
Cc1c(OCC(=O)NCC(O)c2ccccc2)ccc2c(-c3ccccc3)cc(=O)oc12 (centres undefined)	25.1 µM [falling, single point]	
CN(Cc1ccccc1)C(=O)c1ccc(NC(=O)C2=CSCCO2)cc1	35.5 µM [rising, single point]	
Cn1c(CO)nc2cc(N)ccc21	3.16 µM [rising, partial curve, poor fit]	
CCCCc1nc2cc(C(=O)NCc3cn(C)nc3C)ccc2o1	5.62 µM [falling, full curve]	
Cc1ccc(/C=C(\C#N)c2nc3ccccc3[nH]2)s1	3.16 µM [falling, full curve]	
COc1ccc(C(=O)NCc2cc(C)nc3ccccc23)cc1OC	35.5 µM [rising, single point]	22.4 µM [falling, single point]
CCCn1c(SCC(=O)c2c[nH]c3ccccc23)nnc1-c1ccncc1	13 µM [falling, partial curve]	
Cc1ccccc1Nc1c(N)c(=O)oc2ccccc12	13 µM [rising, partial curve, poor fit]	10.3 µM [falling, partial curve]
COc1ccc(C(c2c(NC(=O)c3ccccc3)sc(C)c2C)N2CCN(CCO)CC2)cc1 (centres undefined)	18.4 µM [falling, partial curve]	
CCCn1nnc(NC(=O)c2cccc(OCC(C)C)c2)n1	35.5 µM [falling, single point]	
CN1c2ccccc2C(C)(C)C12CCCC(=O)N2 (centres undefined)	3.98 µM [falling, partial curve, poor fit]	
Cc1cc2c(c(C)c1CCO)C(=O)[C@H](C)C2	0.231 µM [falling, partial curve, poor fit]	
